Test results: US20240043797A1, “METHOD FOR MASS PRODUCTION OF HIGHLY PURE, STEM CELL-DERIVED EXTRACELLULAR VESICLE BY USING PEPTIDE” (INDUSTRY-ACADEMIC COOPERATION FOUNDATION, CHOSUN UNIVERSITY, priority 2020, published 2024)
At least one compound was matched to its structure with a doubt left. Some entries share one result that the patent states for a list of compounds. Peptide text beside a SMILES is read from it.

System: mesenchymal stem cells
Assay: Inhibitor assay: EV production after pretreatment with BAPTA-AM or ALLM
Assay type: cell-based
Conditions: for EV production relative to groups treated without the inhibitor: TS-eEV isolation, 50 μM BAPTA-AM 1 hour or 10 μM ALLM 18 hours; for EV production (particle number/min): TS-eEV production, cells pretreated with 50 μM BAPTA-AM 1 hour or 10 μM ALLM 18 hours
Procedure: The cells were pretreated with 50 μM BAPTA-AM (calcium-selective chelator) for 1 hour and with 10 μM ALLM (calpain inhibitor) for 18 hours. Comparison was made of EV production outputs among the method used, and the results are shown in FIGS. 14a and 14b and Table 15.

Structure (SMILES): CSCC[C@@H](C=O)NC(=O)[C@H](CC(C)C)NC(=O)[C@H](CC(C)C)NC(C)=O [ALLM] (Ac-Leu-Leu-Met-aldehyde)
- EV production relative to groups treated without the inhibitor: less than 60%
- EV production (particle number/min): 5.50 × 10^2 ± 6.64 × 10 particle number/min

Structure (SMILES): CC(=O)OCOC(=O)CN(CC(=O)OCOC(C)=O)c1ccccc1OCCOc1ccccc1N(CC(=O)OCOC(C)=O)CC(=O)OCOC(C)=O [BAPTA-AM]
- EV production relative to groups treated without the inhibitor: less than 60%
- EV production (particle number/min): 4.89 × 10^2 ± 6.06 × 10 particle number/min
